Source: patent US4007165A (priority 1974, dated 1977)
At least one structure is not confirmed: it was looked up by name or label, or the drawing left a doubt.

Settings: exposure to air over extended periods

Compound: CC(C)(C)NNC1(C#N)CCCCC1 [Example IV A, 1-tert.-butylhydrazo-1-cyanocyclohexane]
- evolution of HCN: evolves HCN on exposure to air over extended periods
